Experimental data as given in patent US20100113421A1, “NON-NUCLEOSIDE REVERSE TRANSCRIPTASE INHIBITORS” (priority 2006, published 2010).
Some of these results come from one statement about several compounds together.

What was measured:
[1] = molecular target: T1, HIV reverse transcriptase with K103N mutation (Human immunodeficiency virus type 1 group M subtype B, UniProt P04585, K690N); test: SPA assay, mutant reverse transcriptase K103N; format: biochemical; conditions: K103N mutant RT
T1 construct: against mutant HIV reverse transcriptase; made in house

[2] = molecular target: T2, HIV reverse transcriptase with Y181C mutation (Human immunodeficiency virus type 1 group M subtype B, UniProt P04585, Y768C); test: SPA assay, mutant reverse transcriptase Y181C; format: biochemical; conditions: Y181C mutant RT, read-out: IC50 in the Y181C assay
T2 construct: against mutant HIV reverse transcriptase; made in house

[3] = test system: HIV strain containing the Y181C mutation; test: Spread assay, Y181C mutant strain; format: cell-based; conditions: 10% FBS
Procedure: Assays for the inhibition of acute HIV-1 infection of T-lymphoid cells (alternatively referred to herein as the “spread assay”) were conducted in accordance with Vacca, J. P. et al., Proc. Natl. Acad. Sci. USA 1994, 91: 4096. The assays (using 10% FBS) tested for inhibition of wild type HIV-1 and of HIV strains containing the Y181C or K103N mutation. […] (Note that the compound of Example 6 was tested only up to a 833 nM concentration and the CIC95 value was determined to be >833 nM. The compound of Example 78 was not tested in the Y1818C assay.) The compounds of Examples 1 to 119 (including Examples 70A and 70B) had CIC95 values of less than 1000 nanomolar in the assay employing the K103N mutant strain. In an analogous assay employing a mutant strain containing both the K103N and Y181C mutations, the compounds of Examples 70A, 70B and 78-115 had CIC95 values of less than 1000 nanomolar.

[4] = test system: T-lymphoid cells; test: Cytotoxicity by microscopic examination of cells in the spread assay; format: cell-based; conditions: no cytotoxicity at concentrations of up to 8 micromolar; spread assay cultures
[5] = molecular target: T3, HIV-1 RT enzyme (Human immunodeficiency virus type 1 group M subtype B, UniProt P04585); test: SPA assay for inhibition of HIV reverse transcriptase (wild type); format: biochemical; conditions: read-out: IC50
[6] = molecular target: T3, HIV-1 RT enzyme; test: ECL assay for inhibition of HIV reverse transcriptase (wild type); format: biochemical
[7] = molecular target: T2, HIV reverse transcriptase with Y181C mutation; test: ECL assay, mutant reverse transcriptase Y181C; format: biochemical; conditions: read-out: IC50 in the Y181C assay, Y181C mutant RT

Compound	IC50 [1] [µM]	IC50 [2] [µM]	CIC95 [3]	cytotoxicity (lowest concentration at which a morphological change is observed) [4] [micromolar]	IC50 [5] [µM]	IC50 [6] [µM]	IC50 [7] [µM]
Cc1c(C(=O)N(C)Cc2ccc(Cl)cc2Cl)[nH]c(C(N)=O)c1S(=O)(=O)N1CCCCC1 [Example 118, N-(2,4-dichlorobenzyl)-N,3-dimethyl-4-(1-piperidinylsulfonyl)-1H-pyrrole-2,5-dicarboxamide]	< 5	< 8	–	–	–	–	–
N-(2-chlorobenzyl)-N,3- dimethyl-4-(2-cyano-3- methyiphenylsulfonyl)-1H- pyrrole-2,5 -dicarboxamide [Example 37]	< 5	< 8	less than 8000 nanomolar	> 8	< 5	–	–
Cc1cc(C)cc(S(=O)(=O)c2c(C(N)=O)[nH]c(C(=O)N(C)Cc3ccc(Cl)cc3F)c2C)c1 [Example 26, N-(4-chloro-2-fluorobenzyl)-N,3-dimethyl-4-(3,5-dimethylphenylsulfonyl)-1H-pyrrole-2,5-dicarboxamide]	–	< 8	–	–	< 5	< 5	< 8
Cc1c(C(=O)N(C)Cc2ccccc2Cl)[nH]c(C(N)=O)c1S(=O)(=O)N1CCCCC1 [Example 119, N-(2-chlorobenzyl)-N,3-dimethyl-4-(1-piperidinylsulfonyl)-1H-pyrrole-2,5-dicarboxamide]	< 5	< 8	–	–	–	–	–
Cc1c(C(=O)N(C)Cc2ccc(Br)cc2)[nH]c(C(N)=O)c1S(=O)(=O)c1ccccc1 [Example 11, N-(4-bromobenzyl)-N,3-dimethyl-4-(phenylsulfonyl)-1H-pyrrole-2,5-dicarboxamide]	–	< 8	–	–	< 5	–	–
